Structures can show the parent of a compound that is named as a salt. The list shows a part of the results. Many values rest on one well or one pass, so single values are uncertain.
What was measured:
[1] = test system: A2780; assay: cell growth inhibition ratio vs untreated control (CCK8); higher = stronger inhibition of cell viability; settings: 10 µM; 48 h
Procedure: (§1)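 Natural product library (Topscience) screened at 10 µM final concentration for 48 h on ovarian cancer A2780 cells and patient-derived ovarian cancer cells (PDC) in 96-well plates; viability read by CCK8 and reported as inhibition ratio (%) relative to untreated control. Single-dose primary screen.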

[2] = test system: patient-derived ovarian cancer cells (PDC); assay: as above; settings: 10 µM; 48 h
Procedure: as §1

CC1(C)CC[C@]2(C(=O)O)CC[C@]3(C)C(=CC[C@@H]4[C@@]5(C)CCC(=O)C(C)(C)[C@@H]5CC[C@]43C)[C@@H]2C1 [Oleanonic Acid]
cell growth inhibition ratio [1]: 37.9% | cell growth inhibition ratio [2]: 8.71%

O=c1cc(-c2ccc(O)c(O)c2)oc2cc(O[C@@H]3O[C@H](CO)[C@@H](O)[C@H](O)[C@H]3O)cc(O)c12 [Cynaroside]
cell growth inhibition ratio [1]: 29.7% | cell growth inhibition ratio [2]: -10.4%

C[C@H]1[C@H](C)CC[C@]2(C(=O)O)CC[C@]3(C)C(=CC[C@@H]4[C@@]5(C)C[C@@H](O)[C@H](O)C(C)(C)[C@@H]5CC[C@]43C)[C@H]12 [Corosolic acid]
cell growth inhibition ratio [1]: 21.8% | cell growth inhibition ratio [2]: 15%

O=C(O)/C=C/c1ccc(O)cc1 [p-Coumaric acid]
cell growth inhibition ratio [1]: -0.167% | cell growth inhibition ratio [2]: -6.59%

NCCc1ccc(O)c(O)c1 [Dopamine hydrochloride]
cell growth inhibition ratio [1]: -24.8% | cell growth inhibition ratio [2]: 5.07%

COc1cc2ccc(=O)oc2c(O[C@@H]2O[C@H](CO)[C@@H](O)[C@H](O)[C@H]2O)c1O [Fraxin]
cell growth inhibition ratio [1]: 13.1% | cell growth inhibition ratio [2]: 5.93%

O[C@H]1[C@H](O)[C@@H](O)[C@H](O)[C@@H](O)[C@H]1O [Inositol]
cell growth inhibition ratio [1]: 11.1% | cell growth inhibition ratio [2]: 3.65%

C[C@H]1O[C@@H](O[C@H]2CC[C@@]3(C)[C@@H](CC[C@]4(C)[C@@H]3C=CC3=C5CC(C)(C)CC[C@]5(CO)[C@H](O)C[C@]34C)[C@]2(C)CO)[C@H](O)[C@@H](O[C@@H]2O[C@H](CO)[C@@H](O)[C@H](O)[C@H]2O)[C@H]1O [Saikosaponin B2]
cell growth inhibition ratio [1]: 3.75% | cell growth inhibition ratio [2]: 10%

COc1ccc(-c2oc3c(CC=C(C)C)c(O[C@@H]4O[C@H](CO)[C@@H](O)[C@H](O)[C@H]4O)cc(O)c3c(=O)c2O[C@@H]2O[C@@H](C)[C@H](O)[C@@H](O)[C@H]2O[C@@H]2O[C@@H](C)[C@H](O)[C@@H](O)[C@H]2O)cc1 [Epimedin C]
cell growth inhibition ratio [1]: 40.1% | cell growth inhibition ratio [2]: 16%

C[C@]12CC[C@@H]3c4ccc(O)cc4CC[C@H]3[C@@H]1CCC2=O [Aquacrine]
cell growth inhibition ratio [1]: 8.07% | cell growth inhibition ratio [2]: 8.59%

CC1=CC(=O)c2ccccc2C1=O [Menadione]
cell growth inhibition ratio [1]: 84.2% | cell growth inhibition ratio [2]: 26.2%

OC[C@@H](O)[C@H](O)[C@@H](O)CO [Xylitol]
cell growth inhibition ratio [1]: 8.88% | cell growth inhibition ratio [2]: 1.37%

O=c1cc(-c2ccc(O)cc2)oc2c([C@@H]3OC[C@H](O)[C@H](O)[C@H]3O)c(O)c([C@@H]3O[C@H](CO)[C@@H](O)[C@H](O)[C@H]3O)c(O)c12
cell growth inhibition ratio [1]: 9.67% | cell growth inhibition ratio [2]: -13.3%

O=C(O)c1ccccc1 [Benzoic acid]
cell growth inhibition ratio [1]: 9.01% | cell growth inhibition ratio [2]: 4.39%

C[C@H]1[C@H](C)CC[C@]2(C(=O)O)CC[C@]3(C)C(=CC[C@@H]4[C@@]5(C)C[C@@H](O)[C@H](O)[C@@](C)(CO)[C@@H]5[C@H](O)C[C@]43C)[C@H]12 [Madecassic acid]
cell growth inhibition ratio [1]: 5.03% | cell growth inhibition ratio [2]: -21%

COc1ccc([C@@H]2OC[C@H]3[C@@H]2CO[C@@H]3c2ccc(O[C@@H]3O[C@H](CO)[C@@H](O)[C@H](O)[C@H]3O)c(OC)c2)cc1OC [Forsythin]
cell growth inhibition ratio [1]: 25.3% | cell growth inhibition ratio [2]: -0.169%

O=C(O)c1cc(O)c2c(c1)[C@@H]([C@H]1c3cc(C(=O)O)cc(O)c3C(=O)c3c(O[C@@H]4O[C@H](CO)[C@@H](O)[C@H](O)[C@H]4O)cccc31)c1cccc(O[C@@H]3O[C@H](CO)[C@@H](O)[C@H](O)[C@H]3O)c1C2=O [Sennoside B]
cell growth inhibition ratio [1]: 32.9% | cell growth inhibition ratio [2]: 13.4%

CC1=C[C@]2(O)O[C@@]3(CC2=C(C)C)[C@@H](C)CC[C@@H]13 [Curcumenol]
cell growth inhibition ratio [1]: 3.71% | cell growth inhibition ratio [2]: -0.147%

CC(C)=CCOc1c2ccoc2cc2oc(=O)ccc12 [Isoimperatorin]
cell growth inhibition ratio [1]: 8.55% | cell growth inhibition ratio [2]: 14.4%

CC1(C)CCC[C@](C)([C@H]2CC[C@]3(C)[C@@H]2[C@H](O)C[C@@H]2[C@@]4(C)CC[C@H](O)C(C)(C)[C@@H]4CC[C@]23C)O1 [Panaxadiol]
cell growth inhibition ratio [1]: 1.47% | cell growth inhibition ratio [2]: 8.09%

CC(C)=CCc1cc2c(cc1O)oc(=O)c1c3ccc(O)cc3oc21 [Psoralidin]
cell growth inhibition ratio [1]: 20.7% | cell growth inhibition ratio [2]: 3.47%

C[C@]12CC[C@@H]3c4ccc(O)cc4CC[C@H]3[C@@H]1CC[C@@H]2O [Estradiol]
cell growth inhibition ratio [1]: 6.73% | cell growth inhibition ratio [2]: 8.38%

Oc1cc(O)c2c(c1)O[C@H](c1cc(O)c(O)c(O)c1)[C@H](O)C2 [Epigallocatechin]
cell growth inhibition ratio [1]: 3.31% | cell growth inhibition ratio [2]: 8.86%

O=C1C=C2C=C[C@@H](O)[C@H](O)[C@H]2O1 [griffonilide]
cell growth inhibition ratio [1]: 2.47% | cell growth inhibition ratio [2]: -18.1%

C[n+]1cccc(C(=O)[O-])c1 [Trigonelline]
cell growth inhibition ratio [1]: 12.9% | cell growth inhibition ratio [2]: 9.98%

Source: the supplement of paper PMC10373366
